Source: patent US20150210767A1 (GlaxoSmithKline, published 2015)
These are yes or no findings as the source states them, for the method shown. Some entries that bind do so weakly or less than the wild type.

The chains behind the UniProt entries cited, without tags or fusion partners. Residues count along the entry.
UniProt P19438, residues 30-211: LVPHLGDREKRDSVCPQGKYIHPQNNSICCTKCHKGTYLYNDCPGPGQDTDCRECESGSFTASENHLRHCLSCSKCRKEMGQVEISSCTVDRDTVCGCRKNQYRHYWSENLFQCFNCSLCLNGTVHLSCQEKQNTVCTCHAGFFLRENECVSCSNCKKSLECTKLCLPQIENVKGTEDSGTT

B1: DMS5544 (bispecific antibody)
chain: EVQLLESGGGLVQPGGSLRLSCAASGFTFDKYSMGWVRQAPGKGLEWVSQISDTADRTYYAHSVKGRFTISRDNSKNTLYLQMNSLRAEDTAVYYCAIYTGRWVPFEYWGQGTLVTVSSASTDIQMTQSPSSLSASVGDRVTITCRASRPIGTTLSWYQQKPGKAPKLLILWNSRLQSGVPSRFSGSGSGTDFTLTISSLQPEDFATYYCAQAGTHPTTFGQGTKVEIKR
notes: Single-chain genetic fusion of the anti-TNFR1 VH dAb DOM1h-574-188, linker AST and the anti-serum albumin Vk dAb DOM7h-11-3; also called DOM1h-574-188 - Ala-Ser-Thr - DOM7h-11-3; anti-TNFR1/AlbudAb fusion
B2: DMS5542 (bispecific antibody)
chain: EVQLLESGGGLVQPGGSLRLSCAASGFTFSKYSMGWVRQAPGKGLEWVSQISDTADRTYYADSVKGRFTISRDNSKNTLYLQMNSLRAEDTAVYYCAIYTGRWVPFEYWGQGTLVTVSSASTDIQMTQSPSSLSASVGDRVTITCRASRPIGTTLSWYQQKPGKAPKLLILWNSRLQSGVPSRFSGSGSGTDFTLTISSLQPEDFATYYCAQAGTHPTTFGQGTKVEIKR
notes: Single-chain genetic fusion of the anti-TNFR1 VH dAb DOM1h-574-214, linker AST and the anti-serum albumin Vk dAb DOM7h-11-3; also called DOM1h-574-214 - Ala-Ser-Thr - DOM7h-11-3; anti-TNFR1/AlbudAb fusion
B3: DMS5535 (bispecific antibody)
chain: EVQLLESGGGLVQPGGSLRLSCAASGFTFSKYSMGWVRQAPGKGLEWVSQISDTADRTYYAHSVKGRFTISRDNSKNTLYLQMNSLRAEDTAVYYCAIYTGRWEPFEYWGQGTLVTVSSASTDIQMTQSPSSLSASVGDRVTITCRASRPIGTTLSWYQQKPGKAPKLLILWNSRLQSGVPSRFSGSGSGTDFTLTISSLQPEDFATYYCAQAGTHPTTFGQGTKVEIKR
notes: Single-chain genetic fusion of the anti-TNFR1 VH dAb DOM1h-574-196, linker AST and the anti-serum albumin Vk dAb DOM7h-11-3; also called DOM1h-574-196 - Ala-Ser-Thr - DOM7h-11-3; anti-TNFR1/AlbudAb fusion

The binders below were run against biotinylated recombinant human soluble TNFR1 (human) (UniProt P19438) (assay: BIAcore (SPR), biotinylated human TNFR1 on streptavidin chip).

binding, binds:
B1
B2
B3
